In the supplement of paper PMC12067093, “Discovery and optimisation of a covalent ligand for TRIM25 and its application to targeted protein ubiquitination” (Chemical Science, 2025):
Some of the results follow.

The chains behind the UniProt entries cited, without tags or fusion partners. Where a name states a change or a piece, a line headed by the entry shows the natural chain unless it says otherwise.
UniProt Q9Y512: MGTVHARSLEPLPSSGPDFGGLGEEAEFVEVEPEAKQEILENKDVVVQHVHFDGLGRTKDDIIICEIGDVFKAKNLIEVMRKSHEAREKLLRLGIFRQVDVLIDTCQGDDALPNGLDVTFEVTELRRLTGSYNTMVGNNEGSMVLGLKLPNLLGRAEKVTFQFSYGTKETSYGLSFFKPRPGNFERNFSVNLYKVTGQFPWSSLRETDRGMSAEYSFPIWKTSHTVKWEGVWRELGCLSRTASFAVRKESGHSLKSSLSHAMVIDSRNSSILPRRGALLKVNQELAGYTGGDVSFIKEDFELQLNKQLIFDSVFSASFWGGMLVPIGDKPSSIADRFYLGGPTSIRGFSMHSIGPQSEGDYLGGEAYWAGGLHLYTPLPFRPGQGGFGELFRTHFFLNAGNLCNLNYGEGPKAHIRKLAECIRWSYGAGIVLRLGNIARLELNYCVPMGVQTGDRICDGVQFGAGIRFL
UniProt Q01826: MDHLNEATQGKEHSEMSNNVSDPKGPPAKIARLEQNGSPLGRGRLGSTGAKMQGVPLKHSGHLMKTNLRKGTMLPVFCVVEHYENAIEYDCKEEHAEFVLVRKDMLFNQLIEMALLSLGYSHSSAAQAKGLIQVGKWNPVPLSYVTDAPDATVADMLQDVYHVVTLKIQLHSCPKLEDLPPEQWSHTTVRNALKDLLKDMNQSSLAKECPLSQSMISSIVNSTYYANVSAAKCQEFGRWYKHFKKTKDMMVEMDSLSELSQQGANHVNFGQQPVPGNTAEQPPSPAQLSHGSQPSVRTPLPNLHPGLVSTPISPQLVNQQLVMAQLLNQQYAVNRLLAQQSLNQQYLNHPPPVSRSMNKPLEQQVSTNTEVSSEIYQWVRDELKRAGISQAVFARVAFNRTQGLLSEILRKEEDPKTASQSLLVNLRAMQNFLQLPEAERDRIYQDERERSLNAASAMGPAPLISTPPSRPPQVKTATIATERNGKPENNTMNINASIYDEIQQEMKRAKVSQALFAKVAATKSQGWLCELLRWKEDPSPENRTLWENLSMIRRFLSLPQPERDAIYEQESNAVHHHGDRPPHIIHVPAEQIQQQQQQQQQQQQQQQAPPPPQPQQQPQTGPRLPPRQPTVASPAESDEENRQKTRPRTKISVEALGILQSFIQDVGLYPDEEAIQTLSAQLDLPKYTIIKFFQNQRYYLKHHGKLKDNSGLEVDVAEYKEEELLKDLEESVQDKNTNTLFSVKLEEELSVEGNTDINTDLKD
UniProt Q9UQR0: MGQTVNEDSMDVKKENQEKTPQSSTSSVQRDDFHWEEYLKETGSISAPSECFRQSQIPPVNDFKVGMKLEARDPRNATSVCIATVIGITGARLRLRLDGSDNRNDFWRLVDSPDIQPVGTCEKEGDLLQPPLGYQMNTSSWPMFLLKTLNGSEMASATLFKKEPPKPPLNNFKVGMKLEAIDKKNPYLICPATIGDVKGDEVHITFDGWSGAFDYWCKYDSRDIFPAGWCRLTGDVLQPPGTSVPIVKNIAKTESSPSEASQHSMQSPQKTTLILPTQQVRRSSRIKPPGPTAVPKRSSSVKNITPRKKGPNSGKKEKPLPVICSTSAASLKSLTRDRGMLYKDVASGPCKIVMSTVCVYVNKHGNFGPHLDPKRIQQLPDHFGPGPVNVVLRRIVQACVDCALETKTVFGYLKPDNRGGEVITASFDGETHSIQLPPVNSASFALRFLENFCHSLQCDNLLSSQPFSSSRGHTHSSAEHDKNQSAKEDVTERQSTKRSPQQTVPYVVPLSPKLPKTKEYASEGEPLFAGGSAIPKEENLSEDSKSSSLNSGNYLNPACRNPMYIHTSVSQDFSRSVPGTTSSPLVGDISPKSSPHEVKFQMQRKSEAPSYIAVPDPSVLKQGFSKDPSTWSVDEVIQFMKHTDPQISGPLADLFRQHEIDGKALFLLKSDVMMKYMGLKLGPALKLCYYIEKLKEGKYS
UniProt Q96LD8: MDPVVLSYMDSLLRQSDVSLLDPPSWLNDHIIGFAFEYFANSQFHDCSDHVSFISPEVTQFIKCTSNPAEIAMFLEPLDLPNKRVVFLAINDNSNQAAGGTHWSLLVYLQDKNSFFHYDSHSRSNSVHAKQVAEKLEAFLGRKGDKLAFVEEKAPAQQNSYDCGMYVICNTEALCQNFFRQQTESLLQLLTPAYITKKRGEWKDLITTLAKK
UniProt Q9Y3Z3: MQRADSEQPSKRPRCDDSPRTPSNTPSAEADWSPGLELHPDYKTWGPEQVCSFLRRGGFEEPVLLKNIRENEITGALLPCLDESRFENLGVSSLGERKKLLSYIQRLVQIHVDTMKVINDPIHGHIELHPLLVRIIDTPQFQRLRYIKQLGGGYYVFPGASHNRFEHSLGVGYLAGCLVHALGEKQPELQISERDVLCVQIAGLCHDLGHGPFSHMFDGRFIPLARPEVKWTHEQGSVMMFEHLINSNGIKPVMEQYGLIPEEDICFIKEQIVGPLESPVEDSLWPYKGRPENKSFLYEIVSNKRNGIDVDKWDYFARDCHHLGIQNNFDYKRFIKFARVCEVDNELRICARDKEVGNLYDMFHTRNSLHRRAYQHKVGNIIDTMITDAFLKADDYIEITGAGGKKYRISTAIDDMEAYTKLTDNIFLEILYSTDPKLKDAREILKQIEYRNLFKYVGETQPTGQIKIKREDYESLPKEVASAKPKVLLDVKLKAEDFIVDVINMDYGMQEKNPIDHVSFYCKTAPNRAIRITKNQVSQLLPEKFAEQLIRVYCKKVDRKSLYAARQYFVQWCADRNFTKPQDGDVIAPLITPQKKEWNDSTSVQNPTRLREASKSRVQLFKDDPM
UniProt Q96IW7: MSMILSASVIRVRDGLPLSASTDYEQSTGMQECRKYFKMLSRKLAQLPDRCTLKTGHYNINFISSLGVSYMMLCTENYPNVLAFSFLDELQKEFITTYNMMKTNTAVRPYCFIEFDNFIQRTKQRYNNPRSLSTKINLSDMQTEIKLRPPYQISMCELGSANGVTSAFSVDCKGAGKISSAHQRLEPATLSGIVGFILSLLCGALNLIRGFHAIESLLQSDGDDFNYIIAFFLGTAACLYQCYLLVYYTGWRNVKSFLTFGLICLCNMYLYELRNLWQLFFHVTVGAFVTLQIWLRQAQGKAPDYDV
UniProt P31040: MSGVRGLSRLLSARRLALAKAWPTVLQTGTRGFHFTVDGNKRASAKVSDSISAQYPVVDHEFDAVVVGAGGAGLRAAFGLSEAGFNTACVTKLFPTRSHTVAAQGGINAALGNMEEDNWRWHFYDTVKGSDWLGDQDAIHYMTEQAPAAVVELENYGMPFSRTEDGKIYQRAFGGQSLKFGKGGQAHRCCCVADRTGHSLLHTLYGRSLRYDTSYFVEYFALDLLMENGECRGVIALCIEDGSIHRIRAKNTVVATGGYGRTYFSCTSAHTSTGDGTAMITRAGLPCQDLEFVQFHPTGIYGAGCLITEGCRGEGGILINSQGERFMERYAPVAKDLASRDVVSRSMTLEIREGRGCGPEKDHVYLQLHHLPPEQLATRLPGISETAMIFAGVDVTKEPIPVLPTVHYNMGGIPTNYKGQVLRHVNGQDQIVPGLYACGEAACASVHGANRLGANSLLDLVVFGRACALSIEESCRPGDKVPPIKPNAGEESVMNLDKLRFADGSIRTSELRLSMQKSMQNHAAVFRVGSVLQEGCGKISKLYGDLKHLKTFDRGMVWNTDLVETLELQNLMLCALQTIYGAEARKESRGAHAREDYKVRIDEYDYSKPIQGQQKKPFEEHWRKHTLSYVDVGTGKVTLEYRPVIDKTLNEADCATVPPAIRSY
UniProt Q9Y6Y8: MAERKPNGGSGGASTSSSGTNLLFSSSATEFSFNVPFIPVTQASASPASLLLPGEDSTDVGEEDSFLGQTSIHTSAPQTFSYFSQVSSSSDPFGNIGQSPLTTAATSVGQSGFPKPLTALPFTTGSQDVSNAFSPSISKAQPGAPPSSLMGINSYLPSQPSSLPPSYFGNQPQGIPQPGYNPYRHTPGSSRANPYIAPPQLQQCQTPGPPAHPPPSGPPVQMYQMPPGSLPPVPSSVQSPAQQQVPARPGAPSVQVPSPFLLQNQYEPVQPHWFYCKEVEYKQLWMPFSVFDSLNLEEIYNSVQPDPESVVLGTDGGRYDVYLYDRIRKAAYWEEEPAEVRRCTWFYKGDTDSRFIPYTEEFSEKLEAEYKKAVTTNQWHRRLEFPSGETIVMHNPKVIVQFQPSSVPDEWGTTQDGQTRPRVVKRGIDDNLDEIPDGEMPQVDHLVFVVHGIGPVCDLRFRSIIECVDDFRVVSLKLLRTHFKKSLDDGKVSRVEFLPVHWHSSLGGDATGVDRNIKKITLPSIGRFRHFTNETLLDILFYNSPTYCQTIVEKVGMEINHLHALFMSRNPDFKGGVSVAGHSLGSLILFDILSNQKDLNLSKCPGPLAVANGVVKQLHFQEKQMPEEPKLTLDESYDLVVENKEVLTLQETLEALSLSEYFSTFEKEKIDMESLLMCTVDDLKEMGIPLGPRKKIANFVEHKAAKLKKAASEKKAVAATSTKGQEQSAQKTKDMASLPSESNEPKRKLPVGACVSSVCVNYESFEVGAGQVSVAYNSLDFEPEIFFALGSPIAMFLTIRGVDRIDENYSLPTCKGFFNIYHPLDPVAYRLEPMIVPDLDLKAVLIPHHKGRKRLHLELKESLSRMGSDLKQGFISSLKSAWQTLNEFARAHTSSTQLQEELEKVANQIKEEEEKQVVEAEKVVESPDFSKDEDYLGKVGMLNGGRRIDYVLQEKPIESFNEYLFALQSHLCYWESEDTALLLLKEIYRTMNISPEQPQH
UniProt Q14160: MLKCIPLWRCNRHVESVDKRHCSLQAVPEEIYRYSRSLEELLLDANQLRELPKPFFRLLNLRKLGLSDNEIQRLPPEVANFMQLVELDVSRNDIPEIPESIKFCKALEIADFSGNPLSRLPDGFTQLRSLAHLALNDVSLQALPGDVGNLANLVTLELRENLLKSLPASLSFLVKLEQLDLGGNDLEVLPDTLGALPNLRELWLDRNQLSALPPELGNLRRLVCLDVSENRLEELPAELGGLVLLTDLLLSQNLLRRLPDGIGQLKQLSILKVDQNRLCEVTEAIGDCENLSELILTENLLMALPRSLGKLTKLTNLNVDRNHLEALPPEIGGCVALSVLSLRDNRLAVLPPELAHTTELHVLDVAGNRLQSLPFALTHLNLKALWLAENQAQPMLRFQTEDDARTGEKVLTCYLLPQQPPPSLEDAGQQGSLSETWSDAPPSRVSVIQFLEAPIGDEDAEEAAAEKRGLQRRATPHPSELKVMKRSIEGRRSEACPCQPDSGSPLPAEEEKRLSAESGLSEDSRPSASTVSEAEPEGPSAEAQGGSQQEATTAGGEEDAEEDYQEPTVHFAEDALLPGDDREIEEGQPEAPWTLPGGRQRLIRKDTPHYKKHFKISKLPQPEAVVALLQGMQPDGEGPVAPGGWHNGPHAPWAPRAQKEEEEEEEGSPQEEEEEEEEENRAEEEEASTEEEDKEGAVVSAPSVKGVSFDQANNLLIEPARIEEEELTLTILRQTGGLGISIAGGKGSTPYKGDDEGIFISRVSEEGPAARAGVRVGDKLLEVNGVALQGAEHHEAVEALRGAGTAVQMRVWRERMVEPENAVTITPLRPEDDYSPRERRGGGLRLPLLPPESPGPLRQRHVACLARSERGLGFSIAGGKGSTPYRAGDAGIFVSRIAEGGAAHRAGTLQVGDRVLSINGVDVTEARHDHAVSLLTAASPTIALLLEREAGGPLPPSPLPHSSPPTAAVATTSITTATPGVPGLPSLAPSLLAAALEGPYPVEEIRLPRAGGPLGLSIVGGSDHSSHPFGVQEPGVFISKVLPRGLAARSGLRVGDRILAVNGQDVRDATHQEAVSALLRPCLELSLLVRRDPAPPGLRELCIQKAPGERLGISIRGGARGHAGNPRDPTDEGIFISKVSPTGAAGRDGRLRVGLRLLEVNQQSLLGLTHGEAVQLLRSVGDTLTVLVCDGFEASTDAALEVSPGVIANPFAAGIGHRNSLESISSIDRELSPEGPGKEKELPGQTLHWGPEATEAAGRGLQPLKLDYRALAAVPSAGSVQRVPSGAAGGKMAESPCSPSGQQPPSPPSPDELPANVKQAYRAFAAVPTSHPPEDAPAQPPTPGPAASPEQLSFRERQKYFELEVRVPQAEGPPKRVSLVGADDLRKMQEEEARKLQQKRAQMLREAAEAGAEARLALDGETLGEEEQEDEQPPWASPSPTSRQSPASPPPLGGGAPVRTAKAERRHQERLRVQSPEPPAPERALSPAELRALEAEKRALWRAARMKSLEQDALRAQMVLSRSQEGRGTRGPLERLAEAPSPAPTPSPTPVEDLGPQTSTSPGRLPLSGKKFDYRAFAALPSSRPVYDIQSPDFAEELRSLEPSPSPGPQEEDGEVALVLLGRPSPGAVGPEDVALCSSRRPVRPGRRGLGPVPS
UniProt Q9NR31: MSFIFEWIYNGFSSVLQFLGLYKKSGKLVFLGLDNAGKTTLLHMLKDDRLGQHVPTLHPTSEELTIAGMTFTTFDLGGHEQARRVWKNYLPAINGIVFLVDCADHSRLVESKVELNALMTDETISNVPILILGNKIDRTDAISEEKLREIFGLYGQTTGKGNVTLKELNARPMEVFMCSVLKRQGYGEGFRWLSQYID

Compound: CC1Cc2ccccc2N1C(=O)C1CCCN(C1)C(=O)CCl (mixture of isomers) [TRIM25 ligand 11 (diastereomer mixture)]
Assay: probe-labelled cysteine peptide fold change vs DMSO (competition) (log2 fold change); higher = less target engagement (more negative = stronger competition)
Settings: THP-1, incubation time: 4 h
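Note: competitive chemoproteomic profiling in live THP-1 cells with an iodoacetamide desthiobiotin (IA-DTB) probe, comparing probe-labelled peptide intensities in compound-treated cells against DMSO-treated controls.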

Target	probe-labelled cysteine peptide fold change (10 µM)	probe-labelled cysteine peptide fold change (50 µM)
SEC24C_P53992_881_DTLITQCAQILACYR (UniProt P53992)	0.0228	0.163
SDSL_Q96GA7_38_CENVQPSGSFK (UniProt Q96GA7)	-0.0549	-0.15
SAMM50_Q9Y512_65_TKDDIIICEIGDVFK (UniProt Q9Y512)	-0.0176	0.105
SATB1_Q01826_91_GTMLPVFCVVEHYENAIEYDCK (UniProt Q01826)	0.391	0.219
SCML2_Q9UQR0_458_FLENFCHSLQCDNLLSSQPFSSSR (UniProt Q9UQR0)	-0.039	-0.179
SENP8_Q96LD8_64_CTSNPAEIAMFLEPLDLPNKR (UniProt Q96LD8)	-0.146	-0.105
SAMHD1_Q9Y3Z3_80_ENEITGALLPCLDESR (UniProt Q9Y3Z3)	-0.0153	0.0561
SAMSN1_Q9NSI8_165_DSFRLDDDGPYSGPFCGR (UniProt Q9NSI8)	-0.0612	0.0886
SEC22A_Q96IW7_111_TNTAVRPYCFIEFDNFIQR (UniProt Q96IW7)	-0.0683	-0.146
SDHA_P31040_438+443_HVNGQDQIVPGLYACGEAACASVHGANR (UniProt P31040)	-0.0485	-0.385
SEC23IP_Q9Y6Y8_604_CPGPLAVANGVVK (UniProt Q9Y6Y8)	-0.115	-0.126
SCRN3_Q0VDG4_406_IVNLFPQCTK (UniProt Q0VDG4)	0.0937	-0.0148
SCRIB_Q14160_496_RSEACPCQPDSGSPLPAEEEK (UniProt Q14160)	-0.103	-0.349
SAR1A_Q9NR31_178_ELNARPMEVFMCSVLKR (UniProt Q9NR31)	-0.614	-0.486

Retrieved one by one from the list above:
Target	probe-labelled cysteine peptide fold change (10 µM)	probe-labelled cysteine peptide fold change (50 µM)
SEC22A_Q96IW7_111_TNTAVRPYCFIEFDNFIQR (UniProt Q96IW7)	-0.0683	-0.146
SAR1A_Q9NR31_178_ELNARPMEVFMCSVLKR (UniProt Q9NR31)	-0.614	-0.486
